For 6 molecules, normalised response results are on record in the supplement of paper PMC4862054.

Small differences around the control level are noise.

What all share (assay): normalised response (% of control), CellTox Green; higher = less cell death (100 = DMSO, 0 = benzethonium chloride kill control)
What all share (conditions): incubation time: 72 h

Assay [1] concerns MCF-10A. The protocol:
(§1)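 DSRT, 72 h incubation, CellTox Green / CellTiter-Glo readout. Signal is normalised to DMSO and benzethonium chloride controls. Value is the normalised response at the lowest tested concentration.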

In assay [2] the test system is DU-4475. The protocol:
as §1

Assay [3] deals with MDA-MB-468. How it is done: as §1
Assay [4] relates to CAL-85-1. How it is done:
as §1

Assay [5] has as its system MFM-223. The protocol: as §1
For assay [6], the system named is CAL-148. The protocol:
as §1

Assay [7] concerns MDA-MB-436. How it is done: as §1
In assay [8] the test system is MDA-MB-231. The protocol: as §1
Assay [9] relates to HCC1937. How it is done:
as §1

In assay [10] the test system is MDA-MB-453. How it is done:
as §1

The test system of assay [11] is HCC1599. The protocol:
as §1

Assay [12] deals with HCC1143. How it is done:
as §1

Assay [13] relates to BT-549. The protocol:
as §1

For assay [14], the system named is CAL-120. How it is done:
as §1

Assay [15] has as its system BT-474. The protocol:
as §1

The test system of assay [16] is Hs578T. How it is done: as §1
Assay [17] has as its system CAL-51. How it is done:
as §1

The subject of assay [18] is MCF-10A. The protocol:
(§2)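 DSRT, 72 h incubation, CellTox Green / CellTiter-Glo readout. Signal is normalised to DMSO and benzethonium chloride controls. Value is the normalised response at dose 2.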
This is another data set of the same source.

For assay [19], the system named is DU-4475. How it is done:
as §2
This is another data set of the same source.

For assay [20], the system named is MDA-MB-468. How it is done:
as §2
The source holds these as a separate data set.

Assay [21] relates to CAL-85-1. The protocol: as §2
This is another data set of the same source.

In assay [22] the test system is MFM-223. The protocol: as §2
The source holds these as a separate data set.

For assay [23], the system named is CAL-148. The protocol: as §2
This is another data set of the same source.

The test system of assay [24] is MDA-MB-436. The protocol:
as §2
This is another data set of the same source.

The subject of assay [25] is MDA-MB-231. How it is done: as §2
This is another data set of the same source.

For assay [26], the system named is HCC1937. How it is done: as §2
The source holds these as a separate data set.

Assay [27] concerns MDA-MB-453. The protocol:
as §2
This is another data set of the same source.

The test system of assay [28] is HCC1599. How it is done:
as §2
This is another data set of the same source.

Assay [29] relates to HCC1143. How it is done: as §2
The source holds these as a separate data set.

Assay [30] deals with BT-549. The protocol: as §2
The source holds these as a separate data set.

Assay [31] deals with CAL-120. How it is done: as §2
This is another data set of the same source.

Assay [32] has as its system BT-474. The protocol: as §2
This is another data set of the same source.

The subject of assay [33] is Hs578T. How it is done: as §2
The source holds these as a separate data set.

The test system of assay [34] is CAL-51. The protocol: as §2
The source holds these as a separate data set.

The subject of the next assay is HDQ-P1. The protocol:
as §2

For `CN(C)C/C=C/C(=O)Nc1cc2c(Nc3ccc(F)c(Cl)c3)ncnc2cc1O[C@H]1CCOC1` [Afatinib] (0.1 nM), the normalised response in the assay on MCF-10A [1] was found to be 99.9%; with DU-4475 [2] it was 101%; with MDA-MB-468 [3] it was 95.1%; in the assay with CAL-85-1 [4] it was 98.6%; in the assay with MFM-223 [5] it was 94.3%; with CAL-148 [6] it was 102%. In addition, the normalised response in the assay with MDA-MB-436 [7] was found to be 72.8%; in the assay with MDA-MB-231 [8], 107%; with HCC1937 [9], 104%; in the assay on MDA-MB-453 [10], 104%; with HCC1599 [11] it was 97.4%; in the assay with HCC1143 [12], 113%. Moreover, the normalised response with BT-549 [13] was determined as 94.7%; in the assay with CAL-120 [14] it was 96.2%; with BT-474 [15], 102%; in the assay on Hs578T [16], 101%; in the assay on CAL-51 [17], 111%.
In the case of `C#Cc1cccc(Nc2ncnc3cc(OCCOC)c(OCCOC)cc23)c1` [Erlotinib] (10 nM), the normalised response with MCF-10A [18] worked out at 103%; with DU-4475 [19], 101%; in the assay with MDA-MB-468 [20] it was 82.3%; in the assay on CAL-85-1 [21], 98.8%; in the assay on MFM-223 [22], 103%; in the assay on CAL-148 [23], 108%. In addition, the normalised response with MDA-MB-436 [24] was 91.5%; in the assay on MDA-MB-231 [25], 111%; with HCC1937 [26] it was 97.5%; with MDA-MB-453 [27], 99.8%; in the assay with HCC1599 [28] it was 108%; with HCC1143 [29], 117%. The normalised response in the assay with BT-549 [30] was determined as 86.1%; in the assay on CAL-120 [31], 101%; in the assay with BT-474 [32], 102%; with Hs578T [33], 114%; in the assay on CAL-51 [34], 97.9%; with HDQ-P1, 118%.
Take `C=C1C[C@@H]2[C@H](CC[C@]3(C)C(=O)CC[C@@H]23)[C@@]2(C)C=CC(=O)C=C12` [Exemestane] (10 nM): the normalised response came to 59.9% with MCF-10A [18]; 114% with DU-4475 [19]; 101% in the assay on MDA-MB-468 [20]; 102% in the assay on CAL-85-1 [21]; 99.7% with MFM-223 [22]; 109% with CAL-148 [23]. Besides, the normalised response was determined as 106% with MDA-MB-436 [24]; 115% in the assay with MDA-MB-231 [25]; 89.5% in the assay with HCC1937 [26]; 104% in the assay on MDA-MB-453 [27]; 116% with HCC1599 [28]; 97% in the assay with HCC1143 [29]. Moreover, the normalised response in the assay with BT-549 [30] was determined as 104%; with CAL-120 [31] it was 103%; with BT-474 [32], 105%; in the assay on Hs578T [33], 132%; in the assay with CAL-51 [34] it was 99.6%; in the assay with HDQ-P1 it was 70.9%.
Take `NC1(c2ccc(-c3nc4ccn5c(=O)[nH]nc5c4cc3-c3ccccc3)cc2)CCC1` [MK-2206] (1 nM): the normalised response in the assay with MCF-10A [18] amounted to 120%; in the assay with DU-4475 [19] it was 115%; in the assay with MDA-MB-468 [20], 93.4%; in the assay on CAL-85-1 [21] it was 103%; in the assay on MFM-223 [22], 103%; with CAL-148 [23] it was 110%. Besides, the normalised response in the assay on MDA-MB-436 [24] is 95%; in the assay on MDA-MB-231 [25], 111%; in the assay on HCC1937 [26] it was 100%; in the assay with MDA-MB-453 [27] it was 104%; in the assay on HCC1599 [28] it was 118%; in the assay with HCC1143 [29], 120%. Further, the normalised response in the assay on BT-549 [30] amounted to 101%; in the assay on CAL-120 [31], 108%; in the assay with BT-474 [32] it was 99.1%; in the assay on Hs578T [33], 127%; in the assay on CAL-51 [34], 101%; in the assay with HDQ-P1, 124%.
On to `COc1nc(N)nc2c1ncn2[C@@H]1O[C@H](CO)[C@@H](O)[C@@H]1O` [Nelarabine] (1 nM), for which the normalised response is -9.84% in the assay with MCF-10A [1]; 93% with DU-4475 [2]; 111% in the assay on MDA-MB-468 [3]; 106% with CAL-85-1 [4]; 96.4% in the assay on MFM-223 [5]; 93.1% in the assay with CAL-148 [6]. Further, the normalised response in the assay with MDA-MB-436 [7] came to 90.9%; with MDA-MB-231 [8], 85.2%; with HCC1937 [9] it was 61.8%; with MDA-MB-453 [10], 95.1%; with HCC1599 [11] it was 86.6%; with HCC1143 [12] it was 104%. The normalised response with BT-549 [13] stood at 102%; in the assay on CAL-120 [14], 99.7%; with BT-474 [15] it was 97.9%; with Hs578T [16] it was 96%; in the assay with CAL-51 [17], 111%.
In the case of `Cn1nnc2c(C(N)=O)ncn2c1=O` [Temozolomide] (1 nM), the normalised response in the assay on MCF-10A [1] is 110%; in the assay with DU-4475 [2] it was 99.7%; in the assay with MDA-MB-468 [3], 74.7%; with CAL-85-1 [4] it was 104%; in the assay with MFM-223 [5] it was 91.5%; in the assay with MDA-MB-436 [7], 93.6%. Also, the normalised response was 54.2% in the assay on MDA-MB-231 [8]; 95% with HCC1937 [9]; 101% with MDA-MB-453 [10]; 100% in the assay with HCC1599 [11]; 103% with HCC1143 [12]; 100% with BT-549 [13]. In addition, the normalised response with CAL-120 [14] was found to be 102%; with BT-474 [15], 90.9%; in the assay with Hs578T [16], 101%; in the assay with CAL-51 [17], 88.2%.
